Assay results from the supplement of paper PMC4604168 (melanoma cell lines).
Some of the results follow. Many values rest on one well or one pass, so single values are uncertain.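 The apoptosis fraction was the count of cleaved-PARP antibody-stained nuclei relative to all DNA-stained nuclei, imaged in 1,536-well plates. Screening doses were set so most cells survived, and baseline and induced cleaved-PARP levels vary greatly across cell lines.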

How the values were obtained:
Assay in all cases: cleaved PARP positive nuclei fraction relative to DMSO control; melanoma cells; higher = more apoptosis
Conditions in all cases: library dose: low library concentration; 72 h
MZ2-MEL = system: MZ2-MEL
MeWo = system: MeWo
RPMI7951 = system: RPMI7951
RVH-421 = system: RVH-421
SkMel28 = system: SkMel28
SkMel2 = system: SkMel2
SkMel30 = system: SkMel30
SkMel5 = system: SkMel5
UACC257 = system: UACC257
UACC62 = system: UACC62
WM115 = system: WM115
WM1716 = system: WM1716
WM1745 = system: WM1745
WM3526 = system: WM3526
WM3619 = system: WM3619
WM451Lu = system: WM451Lu

SMILES | cleaved PARP positive nuclei fraction (MZ2-MEL) [%] | cleaved PARP positive nuclei fraction (MeWo) [%] | cleaved PARP positive nuclei fraction (RPMI7951) [%] | cleaved PARP positive nuclei fraction (RVH-421) [%] | cleaved PARP positive nuclei fraction (SkMel28) [%] | cleaved PARP positive nuclei fraction (SkMel2) [%] | cleaved PARP positive nuclei fraction (SkMel30) [%] | cleaved PARP positive nuclei fraction (SkMel5) [%] | cleaved PARP positive nuclei fraction (UACC257) [%] | cleaved PARP positive nuclei fraction (UACC62) [%] | cleaved PARP positive nuclei fraction (WM115) [%] | cleaved PARP positive nuclei fraction (WM1716) [%] | cleaved PARP positive nuclei fraction (WM1745) [%] | cleaved PARP positive nuclei fraction (WM3526) [%] | cleaved PARP positive nuclei fraction (WM3619) [%] | cleaved PARP positive nuclei fraction (WM451Lu) [%]
CC(C)C[C@H](NC(=O)[C@H](Cc1ccccc1)NC(=O)c1cnccn1)B(O)O [Bortezomib] + O=C(O)C(=O)Nc1sc2c(c1C(=O)O)CCNC2 [TCS401] (first compound 0.001 µM, partner dose 1.66667 µM) | 207 | 67.5 | 72.6 | 76.5 | 99.6 | 167 | 44.8 | 72.9 | 117 | 117 | 82.8 | 340 | 126 | 90 | 400 | 75.2
C=C(c1ccc(C(=O)O)cc1)c1cc2c(cc1C)C(C)(C)CCC2(C)C [Bexarotene] + COC(=O)c1sccc1S(=O)(=O)Nc1ccc(Nc2ccccc2)cc1OC [GSK0660] (first compound 2 µM, partner dose 1 µM) | 139 | 166 | 89.2 | 116 | 228 | 67.8 | 40.2 | 171 | 60.6 | 113 | 81.1 | 81.7 | 96.9 | 40.1 | 98.1 | 55.1
C[C@@H](Oc1cc(-c2cnn(C3CCNCC3)c2)cnc1N)c1c(Cl)ccc(F)c1Cl [Crizotinib] + O=C(CCCCCCC(=O)Nc1ccccc1)NO [vorinostat] (first compound 0.2 µM, partner dose 0.08 µM) | 53.9 | 77.6 | 45 | 92.3 | 124 | 119 | 63.8 | 138 | 101 | 102 | 124 | 97.9 | 96.6 | 62.7 | 73.3 | 134
Cn1c(=O)n(-c2ccc(C(C)(C)C#N)cc2)c2c3cc(-c4cnc5ccccc5c4)ccc3ncc21 + COc1cc2c(Oc3ccc4[nH]c(C)cc4c3F)ncnc2cc1OCCCN1CCCC1 [cediranib] (first compound 0.004 µM, partner dose 0.4 µM) | 80.9 | 55.8 | 56.8 | 31.6 | 139 | 107 | 125 | 58.2 | 128 | 202 | 127 | 135 | 83.8 | 51.6 | 82.8 | 121
O=C(O)[C@@H]1[O][Sb](=[O])([O][Sb]2(=[O])[O][C@H]([C@H](O)CO)[C@H](O)[C@H](C(=O)O)[O]2)[O][C@H]([C@H](O)CO)[C@@H]1O (stereo partly drawn) [stibogluconate] + COc1ccc2c(c1)CCC1C2CCC2(C)C(NCCCCCCN3C(=O)C=CC3=O)CCC12 [U73122] (first compound 2 µM, partner dose 0.4 µM) | 31.7 | 93.9 | 108 | 94.9 | 36.1 | 86.8 | 37.8 | 174 | 120 | 65.8 | 91.4 | 88 | 94.6 | 46.3 | 85.7 | 42.7
Nc1ncn([C@H]2C[C@H](O)[C@@H](CO)O2)c(=O)n1 [decitabine] + O=c1cc(-c2cccc3c2Sc2ccccc2S3)oc(N2CCOCC2)c1 [KU55933] (first compound 0.1 µM, partner dose 1 µM) | 54.1 | 39.6 | 362 | 263 | 146 | 154 | 139 | 140 | 144 | 204 | 135 | 145 | 79.1 | 55.2 | 82.2 | 232
O=C(O)[C@@H]1[O][Sb](=[O])([O][Sb]2(=[O])[O][C@H]([C@H](O)CO)[C@H](O)[C@H](C(=O)O)[O]2)[O][C@H]([C@H](O)CO)[C@@H]1O (stereo partly drawn) [stibogluconate] + C[C@@H]1CCN(C(=O)CC#N)C[C@@H]1N(C)c1ncnc2[nH]ccc12 [CP690550] (first compound 2 µM, partner dose 1 µM) | 52.5 | 83.4 | 164 | 223 | 127 | 132 | 59.3 | 26 | 113 | 87.8 | 66 | 67.6 | 87.9 | 113 | 81.6 | 25.1
O=C(O)[C@@H]1[O][Sb](=[O])([O][Sb]2(=[O])[O][C@H]([C@H](O)CO)[C@H](O)[C@H](C(=O)O)[O]2)[O][C@H]([C@H](O)CO)[C@@H]1O (stereo partly drawn) [stibogluconate] + Cc1ccc(NC(=O)c2cccc(N(C)C)c2)cc1NC(=O)c1ccc(O)cc1 [ZM336372] (first compound 2 µM, partner dose 2 µM) | 105 | 102 | 111 | 86.5 | 197 | 58.6 | 74.8 | 64.3 | 101 | 107 | 158 | 138 | 100 | 82.4 | 102 | 24.3
CN1CCN(c2ccc3nc(-c4c(N)c5c(F)cccc5[nH]c4=O)[nH]c3c2)CC1 [Dovitinib] + Oc1nc(-c2ccc(C(F)(F)F)cc2)nc2c1CSCC2 [XAV939] (first compound 0.1 µM, partner dose 2 µM) | 292 | 139 | 176 | 178 | 237 | 35.1 | 120 | 88.1 | 206 | 71 | 165 | 924 | 231 | 149 | 186 | 36.3
CN1CCN(c2ccc3nc(-c4c(N)c5c(F)cccc5[nH]c4=O)[nH]c3c2)CC1 [Dovitinib] + CN(C)S(=O)(=O)c1ccc2c(c1)/C(=C/c1cc3c([nH]1)CCCC3)C(=O)N2 [SU6656] (first compound 0.1 µM, partner dose 0.4 µM) | 181 | 135 | 88.5 | 46.8 | 149 | 65 | 130 | 84.5 | 108 | 83.2 | 216 | 105 | 131 | 41.7 | 73.4 | 39.2
CNC(=O)c1cc(Oc2ccc(NC(=O)Nc3ccc(Cl)c(C(F)(F)F)c3)cc2)ccn1 [sorafenib] + O=c1cc(-c2cccc3c2Sc2ccccc2S3)oc(N2CCOCC2)c1 [KU55933] (first compound 0.4 µM, partner dose 1 µM) | 158 | 158 | 76.1 | 73 | 186 | 97.2 | 80 | 84.6 | 126 | 166 | 90.6 | 62.5 | 90.7 | 87.5 | 96.3 | 76.7
Nc1ccn([C@@H]2O[C@H](CO)[C@@H](O)C2(F)F)c(=O)n1 [gemcitabine] + Cc1cc(N2CCOCC2)cc2[nH]c(-c3c(NC[C@@H](O)c4cccc(Cl)c4)cc[nH]c3=O)nc12 [BMS536924] (first compound 0.0004 µM, partner dose 0.2 µM) | 156 | 52.2 | 42.7 | 161 | 113 | 88.2 | 228 | 135 | 189 | 182 | 24.6 | 221 | 130 | 33.3 | 125 | 82.1
Nc1ncn([C@H]2C[C@H](O)[C@@H](CO)O2)c(=O)n1 [decitabine] + N#Cc1c(O)c2c(-c3ccc(-c4ccccc4O)cc3)csc2[nH]c1=O [A769662] (first compound 0.1 µM, partner dose 2 µM) | 75 | 49.4 | 256 | 69 | 193 | 104 | 103 | 73 | 138 | 213 | 106 | 212 | 95 | 134 | 103 | 20.6
Cc1cc(Nc2cc(N3CCN(C)CC3)nc(/C=C/c3ccccc3)n2)n[nH]1 + OCCn1cc(-c2cnc3nnn(Cc4ccc5ncccc5c4)c3n2)cn1 [PF04217903] (first compound 0.04 µM, partner dose 1 µM) | 120 | 100 | 95.7 | 65.3 | 146 | 102 | 97.2 | 106 | 123 | 231 | 44.6 | 104 | 93.2 | 57 | 79.8 | 44.1
Cc1cc(Nc2cc(N3CCN(C)CC3)nc(/C=C/c3ccccc3)n2)n[nH]1 + CO[C@@H]1[C@H](N(C)C(=O)c2ccccc2)C[C@H]2O[C@]1(C)n1c3ccccc3c3c4c(c5c6ccccc6n2c5c31)C(=O)NC4 [Midostaurin] (first compound 0.04 µM, partner dose 0.08 µM) | 115 | 242 | 113 | 151 | 67.8 | 69.7 | 260 | 77.8 | 18.3 | 29.1 | 58.2 | 167 | 119 | 55.4 | 107 | 33.2
CS(=O)(=O)CCNCc1ccc(-c2ccc3ncnc(Nc4ccc(OCc5cccc(F)c5)c(Cl)c4)c3c2)o1 [lapatinib] + Cn1cncc1[C@@](N)(c1ccc(Cl)cc1)c1ccc2c(c1)c(-c1cccc(Cl)c1)cc(=O)n2C [tipifarnib] (first compound 0.8 µM, partner dose 0.01 µM) | 86.7 | 113 | 141 | 113 | 135 | 116 | 62.4 | 40.6 | 166 | 186 | 136 | 170 | 84.7 | 60.1 | 80.9 | 94.2
CCCS(=O)(=O)Nc1ccc(F)c(C(=O)c2c[nH]c3ncc(Cl)cc23)c1F + NCC(=O)Nc1ccc(-n2nc(C(F)(F)F)cc2-c2ccc3c(ccc4ccccc43)c2)cc1 [OSU03012] (first compound 0.08 µM, partner dose 1 µM) | 318 | 145 | 104 | 47.5 | 148 | 258 | 146 | 120 | 131 | 289 | 162 | 52.6 | 207 | 109 | 96.6 | 75.7
Cn1c(=O)n(-c2ccc(C(C)(C)C#N)cc2)c2c3cc(-c4cnc5ccccc5c4)ccc3ncc21 + OCCn1cc(-c2cnc3nnn(Cc4ccc5ncccc5c4)c3n2)cn1 [PF04217903] (first compound 0.004 µM, partner dose 1 µM) | 240 | 37.2 | 172 | 93.1 | 139 | 115 | 150 | 39.1 | 77 | 120 | 81.1 | 178 | 85.3 | 38.1 | 106 | 130
